{
  "source": "paper doi:10.1101/2022.11.04.515170",
  "key": {"His-SNX32ΔC": {"molecular_target": "T1, His-SNX32ΔC (UniProt Q86XE0)", "T1 sequence": "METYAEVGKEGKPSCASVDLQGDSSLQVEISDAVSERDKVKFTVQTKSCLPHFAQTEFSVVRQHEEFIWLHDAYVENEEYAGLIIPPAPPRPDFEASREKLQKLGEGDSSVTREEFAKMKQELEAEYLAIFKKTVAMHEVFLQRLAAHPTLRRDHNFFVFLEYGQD", "test": "pull-down"}, "mCherry-SNX32": {"molecular_target": "T2, mCherry-SNX32 (UniProt Q86XE0)", "T2 sequence": "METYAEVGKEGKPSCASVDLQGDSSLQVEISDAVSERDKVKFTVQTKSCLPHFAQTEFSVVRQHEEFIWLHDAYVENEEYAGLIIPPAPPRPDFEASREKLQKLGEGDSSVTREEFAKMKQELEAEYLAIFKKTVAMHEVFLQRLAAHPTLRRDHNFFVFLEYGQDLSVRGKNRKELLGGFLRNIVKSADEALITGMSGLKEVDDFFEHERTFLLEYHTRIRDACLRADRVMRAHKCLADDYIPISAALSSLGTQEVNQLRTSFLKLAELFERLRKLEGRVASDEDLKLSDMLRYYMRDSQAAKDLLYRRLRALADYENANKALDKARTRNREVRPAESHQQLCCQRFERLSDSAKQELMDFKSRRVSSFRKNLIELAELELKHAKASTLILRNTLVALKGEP", "test": "co-IP"}, "GFP-SNX32 WT": {"molecular_target": "T3, GFP-SNX32 WT (UniProt Q86XE0)", "T3 sequence": "T2 sequence", "test": "co-IP"}, "mCherry-SNX6": {"molecular_target": "T4, mCherry-SNX6 (UniProt Q9UNH7)", "T4 sequence": "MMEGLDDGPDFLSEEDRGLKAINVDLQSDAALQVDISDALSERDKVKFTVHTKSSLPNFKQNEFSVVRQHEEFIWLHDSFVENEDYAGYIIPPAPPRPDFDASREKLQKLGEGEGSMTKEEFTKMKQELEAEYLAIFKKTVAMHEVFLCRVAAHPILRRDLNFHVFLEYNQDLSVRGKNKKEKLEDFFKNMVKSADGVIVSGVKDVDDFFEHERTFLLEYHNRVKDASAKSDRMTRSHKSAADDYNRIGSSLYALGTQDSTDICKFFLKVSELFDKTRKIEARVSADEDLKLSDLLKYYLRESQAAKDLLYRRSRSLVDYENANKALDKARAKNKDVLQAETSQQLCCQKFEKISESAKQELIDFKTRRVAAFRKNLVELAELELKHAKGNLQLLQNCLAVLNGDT", "test": "co-IP"}},
  "note": "These are yes or no findings as the source states them, for the method shown. Binding seen in cells or lysates may run through a third protein. For some of these results: Binding calls can cover weak binding; strength is not graded here. For some of these results: Sequences can lack the tags named with a protein.",
  "data": [
    {"substance": "Basigin (from UniProt P35613-2) (receptor)", "values": [
      {"measurement": "binding", "setting": "His-SNX32ΔC", "value": "binds"},
      {"measurement": "binding", "setting": "mCherry-SNX32", "value": "binds"},
      {"measurement": "binding", "setting": "GFP-SNX32 WT", "value": "binds"},
      {"measurement": "binding", "setting": "mCherry-SNX6", "value": "no binding"}
    ]}
  ]
}
